Data: publication PMC7819943, “Rice protein-binding microarrays: a tool to detect cis-acting elements near promoter regions in rice”
The other results are listed elsewhere or left out.

Protein sequences, listed by entry. Tags and fused reporters are not part of them.
UniProt Q0JBA9, entry or part of it: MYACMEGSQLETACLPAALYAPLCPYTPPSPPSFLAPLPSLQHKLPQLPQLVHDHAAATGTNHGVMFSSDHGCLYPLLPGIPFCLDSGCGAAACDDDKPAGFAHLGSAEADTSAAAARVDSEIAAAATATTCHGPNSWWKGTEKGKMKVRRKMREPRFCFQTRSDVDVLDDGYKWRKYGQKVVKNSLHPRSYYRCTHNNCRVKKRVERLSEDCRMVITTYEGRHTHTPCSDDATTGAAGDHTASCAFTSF

molecular target: OsWRKY34 (Oryza sativa, UniProt Q0JBA9 1-250); experiment: protein-binding microarray (RPBM); PBS, 2% BSA, 51.3 ng/ul salmon testes DNA, 50 uM zinc acetate, 200 nM TF, 25 C, 1 h; high values mean tight binding; settings: protein: recombinant; tags: N-terminal polyhistidine and DsRed monomer fusion (pET32a); label: CyDye5-dUTP incorporated in the synthesized complementary strand; 3' TTTTT single-stranded linker to array surface; dsDNA, one strand shown
Outline: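 Transcription factors were each fused at the N-terminus to a polyhistidine tag plus DsRed and expressed in E. coli BL21-CodonPlus before Ni–NTA purification. Binding to a double-stranded custom Agilent array was carried out with 200 nM protein at 25 °C for 1 h in PBS, 2% BSA, salmon testes DNA and 50 µM zinc acetate. The binding signal is per-feature fluorescence intensity, in arbitrary units, on an Axon 4000B scanner.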

Sequence	binding signal
TACTATTCTTAATATATCGCATTTGCTCTGTAGTATATACCGGAGTCACCTAGTGCAG	8340 fluorescence intensity (a.u.)
ATATATATATATATATATATATATATATATATGATGTGCGCGGAGTCACCTAGTGCAG	13600 fluorescence intensity (a.u.)
GAGGCAGGGTTTGGCTGTGTTGTTTGGGGCTGGGAACCCTCGGAGTCACCTAGTGCAG	13200 fluorescence intensity (a.u.)
CTTTTTTCCAAGTTCTTTTTTCTCCTTGGTCTCTAGCTTACGGAGTCACCTAGTGCAG	13700 fluorescence intensity (a.u.)
CCGCGTCCGCGTCCCCGCCGACCTGCGCCACGCGCGCTACCGGAGTCACCTAGTGCAG	8740 fluorescence intensity (a.u.)
ACTTTAGTAAACTCAACCATGTATTATTGGTTTCTGTCTCCGGAGTCACCTAGTGCAG	8230 fluorescence intensity (a.u.)
CACCGATTTGCCTCAGCCTCTGTCCGTCTCGCGCGCCGGCCGGAGTCACCTAGTGCAG	11200 fluorescence intensity (a.u.)
AGGTGTTGAAATTGCAGGGTTTGTTTTGGTTAATCAAGAGCGGAGTCACCTAGTGCAG	10000 fluorescence intensity (a.u.)
TGCTTGTACAGTTTCCGGTTTCTTTGCCATTTCGTTTACACGGAGTCACCTAGTGCAG	20000 fluorescence intensity (a.u.)
CGCTTTGTATCCCACACGATCCATTCGCTTCTTCTTCTTCCGGAGTCACCTAGTGCAG	14900 fluorescence intensity (a.u.)
TCTGTGTAGTTTGTATGGGAGGGGTCCAAAAGCAAAATTACGGAGTCACCTAGTGCAG	15300 fluorescence intensity (a.u.)
AACTTTCGATGCCATAGAACCAATTTTGCCATCTCCGGTCCGGAGTCACCTAGTGCAG	8260 fluorescence intensity (a.u.)
CATGTTAGATGTTTTTTTTCTTGTTACTCTTTTTTATTTTCGGAGTCACCTAGTGCAG	13300 fluorescence intensity (a.u.)
GATCCGCTCTTGTAGTTGTAGAGCGTTCCATTCCACTTCCCGGAGTCACCTAGTGCAG	11800 fluorescence intensity (a.u.)
ACCCAGCCCACTAGCTTATCCTGCGTTATTTTCATCAACTCGGAGTCACCTAGTGCAG	12300 fluorescence intensity (a.u.)
CGTGAACTTCTCTCGACTCAACCACCATGCCCCATGTCATCGGAGTCACCTAGTGCAG	8800 fluorescence intensity (a.u.)
GCCGCCGCCATTTTTGTTTCTTGGGAGCTCGCCGGTGACGCGGAGTCACCTAGTGCAG	9920 fluorescence intensity (a.u.)
ACTGAGCCGCTGCCGTCGTTGACCTCCCGGCTGCTCAATCCGGAGTCACCTAGTGCAG	10600 fluorescence intensity (a.u.)
TGGATGATTTTGCCATTTTTTTCATTGCTGGTGCGGTGGTCGGAGTCACCTAGTGCAG	8460 fluorescence intensity (a.u.)
GCCCTGCCTTTCAACTACCCTCTACTCGGATCGGACGACGCGGAGTCACCTAGTGCAG	8930 fluorescence intensity (a.u.)
GCAATATTCCTCATCCTTGTCATGATGAACTAGTAATTACCGGAGTCACCTAGTGCAG	10000 fluorescence intensity (a.u.)
GGTTGGTTTTTGTTCTTGATTTGCTTCATCGATTGGGAGGCGGAGTCACCTAGTGCAG	10300 fluorescence intensity (a.u.)
TCTTAGGTATGGTTTAGTTCTCAATTTTTTTTCCTAAAAACGGAGTCACCTAGTGCAG	9490 fluorescence intensity (a.u.)

At a glance, some entries already given.
Sequence	binding signal
CATGTTAGATGTTTTTTTTCTTGTTACTCTTTTTTATTTTCGGAGTCACCTAGTGCAG	13300 fluorescence intensity (a.u.)
GATCCGCTCTTGTAGTTGTAGAGCGTTCCATTCCACTTCCCGGAGTCACCTAGTGCAG	11800 fluorescence intensity (a.u.)
